# Measured values taken from article PMC8533110.
# The chains behind the UniProt entries cited, without tags or fusion partners.
# UniProt O69289: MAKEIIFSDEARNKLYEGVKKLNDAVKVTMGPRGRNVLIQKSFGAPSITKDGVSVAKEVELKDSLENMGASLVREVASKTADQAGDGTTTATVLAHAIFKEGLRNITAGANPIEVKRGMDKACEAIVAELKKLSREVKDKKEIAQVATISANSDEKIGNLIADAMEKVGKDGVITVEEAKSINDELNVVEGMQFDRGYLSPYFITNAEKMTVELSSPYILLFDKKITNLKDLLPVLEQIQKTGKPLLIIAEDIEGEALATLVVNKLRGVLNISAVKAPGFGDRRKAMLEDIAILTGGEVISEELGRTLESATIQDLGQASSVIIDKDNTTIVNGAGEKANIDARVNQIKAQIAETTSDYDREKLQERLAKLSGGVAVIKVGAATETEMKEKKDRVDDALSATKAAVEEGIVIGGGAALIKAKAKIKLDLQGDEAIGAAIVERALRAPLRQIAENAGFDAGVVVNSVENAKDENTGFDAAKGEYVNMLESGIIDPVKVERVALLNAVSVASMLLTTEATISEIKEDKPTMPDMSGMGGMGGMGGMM
# Results are given in words; binding and its absence hold for the method and conditions named. In cells and extracts the contact can be indirect. Some binding calls cover weakened binding; strength is not graded here. Where a sequence is shown, tags or fusion partners need not be part of it.
# Biological target: T1, GST-HrcA fusion protein (C. jejuni NCTC11168 HrcA repressor fused to glutathione S-transferase) (C. jejuni NCTC 11168) (UniProt Q9PPG2)
# T1 sequence: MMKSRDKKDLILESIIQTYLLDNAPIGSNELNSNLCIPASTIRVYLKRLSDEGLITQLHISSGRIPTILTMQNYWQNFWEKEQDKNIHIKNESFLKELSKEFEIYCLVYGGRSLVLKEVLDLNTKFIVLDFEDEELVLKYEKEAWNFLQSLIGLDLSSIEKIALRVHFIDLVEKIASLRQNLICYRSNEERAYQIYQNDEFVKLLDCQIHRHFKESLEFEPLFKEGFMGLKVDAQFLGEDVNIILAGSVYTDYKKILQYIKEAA
# Experiment: pull-down; GST-HrcA on glutathione-agarose as bait, incubated 16 h at 4 °C with pre-cleared C. jejuni NCTC11168 cytoplasmic extract in Res buffer (10 mM Tris-HCl pH 7.5, 100 mM NaCl, 20 mM KCl, 1 mM EDTA, 0.01% NP-40); GroEL detected by anti-GroEL immunoblot; GST alone as control bait; only the target …
substance,measurement,value
GroEL chaperonin of C. jejuni (from UniProt O69289 1-545),binding,binds
